Results from PMC10830484.
Positions count from the first letter of the chain named. No constants are given. Whether binding was seen depends on the method and setting. For some of these results: In cells and extracts the contact can be indirect. Some binding calls cover weakened binding; strength is not graded here. Sequences can lack the tags named with a protein.

Chains of the proteins cited; added tags and fusions are not shown.
UniProt Q96NA2: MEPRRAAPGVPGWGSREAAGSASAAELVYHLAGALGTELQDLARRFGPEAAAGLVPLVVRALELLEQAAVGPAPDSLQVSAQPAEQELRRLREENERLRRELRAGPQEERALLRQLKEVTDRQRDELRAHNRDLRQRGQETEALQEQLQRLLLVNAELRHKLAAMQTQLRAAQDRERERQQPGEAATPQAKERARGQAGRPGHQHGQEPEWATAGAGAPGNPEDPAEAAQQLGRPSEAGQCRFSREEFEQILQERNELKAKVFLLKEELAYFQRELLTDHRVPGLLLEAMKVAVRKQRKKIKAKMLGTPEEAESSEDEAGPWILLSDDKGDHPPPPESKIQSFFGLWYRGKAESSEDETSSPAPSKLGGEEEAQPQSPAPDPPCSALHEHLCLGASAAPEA
UniProt P62491: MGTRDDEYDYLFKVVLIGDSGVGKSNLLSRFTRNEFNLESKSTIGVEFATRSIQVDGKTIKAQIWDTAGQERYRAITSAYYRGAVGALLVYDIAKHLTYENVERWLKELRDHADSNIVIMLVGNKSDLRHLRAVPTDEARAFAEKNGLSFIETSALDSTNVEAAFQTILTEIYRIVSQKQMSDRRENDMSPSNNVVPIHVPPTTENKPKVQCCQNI
UniProt P61006: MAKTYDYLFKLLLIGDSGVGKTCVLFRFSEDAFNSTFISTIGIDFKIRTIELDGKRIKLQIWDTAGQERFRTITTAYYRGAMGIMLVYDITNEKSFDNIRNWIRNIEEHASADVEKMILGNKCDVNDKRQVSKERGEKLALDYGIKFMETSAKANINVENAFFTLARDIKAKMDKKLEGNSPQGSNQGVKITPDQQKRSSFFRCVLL
UniProt Q92930: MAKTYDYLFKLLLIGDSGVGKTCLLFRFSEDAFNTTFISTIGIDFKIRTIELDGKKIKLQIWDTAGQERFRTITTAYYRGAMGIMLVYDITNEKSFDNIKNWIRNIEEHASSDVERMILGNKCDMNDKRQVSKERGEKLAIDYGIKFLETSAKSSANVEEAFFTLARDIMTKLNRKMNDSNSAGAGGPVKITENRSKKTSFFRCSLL

T1: DENND6A-GFP (human) (UniProt Q8IWF6)
T1 sequence: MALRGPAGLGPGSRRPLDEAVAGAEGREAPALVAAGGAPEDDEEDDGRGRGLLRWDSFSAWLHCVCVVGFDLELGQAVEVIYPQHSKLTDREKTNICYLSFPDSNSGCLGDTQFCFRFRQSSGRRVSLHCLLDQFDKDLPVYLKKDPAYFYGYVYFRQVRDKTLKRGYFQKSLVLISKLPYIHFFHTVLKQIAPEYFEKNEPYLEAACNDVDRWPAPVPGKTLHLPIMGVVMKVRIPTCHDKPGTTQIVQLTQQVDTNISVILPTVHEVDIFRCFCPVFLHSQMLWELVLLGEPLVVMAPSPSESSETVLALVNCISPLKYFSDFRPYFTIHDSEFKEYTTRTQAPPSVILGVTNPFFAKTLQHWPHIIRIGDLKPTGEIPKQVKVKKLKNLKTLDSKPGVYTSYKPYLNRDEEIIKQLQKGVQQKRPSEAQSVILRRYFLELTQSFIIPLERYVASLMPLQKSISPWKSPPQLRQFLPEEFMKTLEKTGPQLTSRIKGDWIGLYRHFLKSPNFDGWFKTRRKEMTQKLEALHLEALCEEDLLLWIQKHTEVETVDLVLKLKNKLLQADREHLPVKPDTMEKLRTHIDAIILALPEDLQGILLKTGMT

T2: GST-Rab34-T66N (UniProt Q9BZG1)
T2 sequence: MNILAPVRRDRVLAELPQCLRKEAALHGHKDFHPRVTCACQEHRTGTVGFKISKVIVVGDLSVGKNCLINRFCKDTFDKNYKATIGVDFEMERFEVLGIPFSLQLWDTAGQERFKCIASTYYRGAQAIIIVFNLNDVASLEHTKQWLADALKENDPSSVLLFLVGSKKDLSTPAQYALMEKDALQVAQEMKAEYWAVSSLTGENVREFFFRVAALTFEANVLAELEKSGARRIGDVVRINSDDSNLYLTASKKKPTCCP

T3: mito-mScarlet-DENND6A (human) (UniProt Q8IWF6)
T3 sequence: T1 sequence

B1: Rab34 (protein, UniProt Q9BZG1 1-259)
chain: T2 sequence with N66T
B2: DENND6A-GFP (protein, UniProt Q8IWF6 1-608)
chain: T1 sequence
B3: GFP-Rab43 (protein, UniProt Q86YS6 1-212)
chain: MAGPGPGPGDPDEQYDFLFKLVLVGDASVGKTCVVQRFKTGAFSERQGSTIGVDFTMKTLEIQGKRVKLQIWDTAGQERFRTITQSYYRSANGAILAYDITKRSSFLSVPHWIEDVRKYAGSNIVQLLIGNKSDLSELREVSLAEAQSLAEHYDILCAIETSAKDSSNVEEAFLRVATELIMRHGGPLFSEKSPDHIQLNSKDIGEGWGCGC
B4: GFP-Rab39A (protein, UniProt Q14964 1-217)
chain: METIWIYQFRLIVIGDSTVGKSCLLHRFTQGRFPGLRSPACDPTVGVDFFSRLLEIEPGKRIKLQLWDTAGQERFRSITRSYYRNSVGGFLVFDITNRRSFEHVKDWLEEAKMYVQPFRIVFLLVGHKCDLASQRQVTREEAEKLSADCGMKYIETSAKDATNVEESFTILTRDIYELIKKGEICIQDGWEGVKSGFVPNTVHSSEEAVKPRKECFC
B5: GFP-Rab19 (protein, UniProt A4D1S5 1-217)
chain: MHFSSSARAADENFDYLFKIILIGDSNVGKTCVVQHFKSGVYTETQQNTIGVDFTVRSLDIDGKKVKMQVWDTAGQERFRTITQSYYRSAHAAIIAYDLTRRSTFESIPHWIHEIEKYGAANVVIMLIGNKCDLWEKRHVLFEDACTLAEKYGLLAVLETSAKESKNIEEVFVLMAKELIARNSLHLYGESALNGLPLDSSPVLMAQGPSEKTHCTC
B6: GFP-Rab3C (protein, UniProt Q96E17 1-227)
chain: MRHEAPMQMASAQDARYGQKDSSDQNFDYMFKLLIIGNSSVGKTSFLFRYADDSFTSAFVSTVGIDFKVKTVFKNEKRIKLQIWDTAGQERYRTITTAYYRGAMGFILMYDITNEESFNAVQDWSTQIKTYSWDNAQVILVGNKCDMEDERVISTERGQHLGEQLGFEFFETSAKDNINVKQTFERLVDIICDKMSESLETDPAITAAKQNTRLKETPPPPQPNCAC
B7: GFP-Rab34 (protein, UniProt Q9BZG1 1-259)
chain: T2 sequence with N66T
B8: GFP-Rab4B (protein, UniProt P61018 1-213)
chain: MAETYDFLFKFLVIGSAGTGKSCLLHQFIENKFKQDSNHTIGVEFGSRVVNVGGKTVKLQIWDTAGQERFRSVTRSYYRGAAGALLVYDITSRETYNSLAAWLTDARTLASPNIVVILCGNKKDLDPEREVTFLEASRFAQENELMFLETSALTGENVEEAFLKCARTILNKIDSGELDPERMGSGIQYGDASLRQLRQPRSAQAVAPQPCGC
B9: GFP-Rab3D (protein, UniProt O95716 1-219)
chain: MASAGDTQAGPRDAADQNFDYMFKLLLIGNSSVGKTSFLFRYADDSFTPAFVSTVGIDFKVKTVYRHDKRIKLQIWDTAGQERYRTITTAYYRGAMGFLLMYDIANQESFAAVQDWATQIKTYSWDNAQVILVGNKCDLEDERVVPAEDGRRLADDLGFEFFEASAKENINVKQVFERLVDVICEKMNESLEPSSSSGSNGKGPAVGDAPAPQPSSCSC
B10: GFP-Rab22B (protein, UniProt Q13636 1-195)
chain: MMAIRELKVCLLGDTGVGKSSIVCRFVQDHFDHNISPTIGASFMTKTVPCGNELHKFLIWDTAGQERFHSLAPMYYRGSAAAVIVYDITKQDSFYTLKKWVKELKEHGPENIVMAIAGNKCDLSDIREVPLKDAKEYAESIGAIVVETSAKNAINIEELFQGISRQIPPLDPHENGNNGTIKVEKPTMQASRRCC
B11: GFP-Rab25 (protein, UniProt P57735 1-213)
chain: MGNGTEEDYNFVFKVVLIGESGVGKTNLLSRFTRNEFSHDSRTTIGVEFSTRTVMLGTAAVKAQIWDTAGLERYRAITSAYYRGAVGALLVFDLTKHQTYAVVERWLKELYDHAEATIVVMLVGNKSDLSQAREVPTEEARMFAENNGLLFLETSALDSTNVELAFETVLKEIFAKVSKQRQNSIRTNAITLGSAQAGQEPGPGEKRACCISL
B12: GFP-Rab30 (protein, UniProt Q15771 1-203)
chain: MSMEDYDFLFKIVLIGNAGVGKTCLVRRFTQGLFPPGQGATIGVDFMIKTVEINGEKVKLQIWDTAGQERFRSITQSYYRSANALILTYDITCEESFRCLPEWLREIEQYASNKVITVLVGNKIDLAERREVSQQRAEEFSEAQDMYYLETSAKESDNVEKLFLDLACRLISEARQNTLVNNVSSPLPGEGKSISYLTCCNFN
B13: GFP-Rab22A (protein, UniProt Q9UL26 1-194)
chain: MALRELKVCLLGDTGVGKSSIVWRFVEDSFDPNINPTIGASFMTKTVQYQNELHKFLIWDTAGQERFRALAPMYYRGSAAAIIVYDITKEETFSTLKNWVKELRQHGPPNIVVAIAGNKCDLIDVREVMERDAKDYADSIHAIFVETSAKNAININELFIEISRRIPSTDANLPSGGKGFKLRRQPSEPKRSCC
B14: GFP-Rab32 (protein, UniProt Q13637 1-225)
chain: MAGGGAGDPGLGAAAAPAPETREHLFKVLVIGELGVGKTSIIKRYVHQLFSQHYRATIGVDFALKVLNWDSRTLVRLQLWDIAGQERFGNMTRVYYKEAVGAFVVFDISRSSTFEAVLKWKSDLDSKVHLPNGSPIPAVLLANKCDQNKDSSQSPSQVDQFCKEHGFAGWFETSAKDNINIEEAARFLVEKILVNHQSFPNEENDVDKIKLDQETLRAENKSQCC
B15: GFP-Rab3B (protein, UniProt P20337 1-219)
chain: MASVTDGKTGVKDASDQNFDYMFKLLIIGNSSVGKTSFLFRYADDTFTPAFVSTVGIDFKVKTVYRHEKRVKLQIWDTAGQERYRTITTAYYRGAMGFILMYDITNEESFNAVQDWATQIKTYSWDNAQVILVGNKCDMEEERVVPTEKGQLLAEQLGFDFFEASAKENISVRQAFERLVDAICDKMSDSLDTDPSMLGSSKNTRLSDTPPLLQQNCSC

Target: T1, DENND6A-GFP (human)
Assay: co-IP; co-immunoprecipitation with DENND6A (Supplementary Fig. 8)

binding, binds:
dynactin (p150) (from UniProt Q14203-1 1-1278), RILP (from UniProt Q96NA2 1-401), B1

Target: T2, GST-Rab34-T66N
Assay: pull-down; GST fusion proteins precoupled to glutathione-Sepharose beads, incubated with lysates of HEK-293T cells expressing DENND6A-GFP for 1 hour at 4 °C; 20 mM Hepes, 100 mM NaCl, 20 mM MgCl2, 1 mM dithiothreitol, 1% Triton X-100, pH 7.4; immunoblot with anti-GFP; only the target purified

binding, binds:
B2

Target: T7-RILP (UniProt Q96NA2)
Assay: pull-down; T7-RILP coupled to T7 tag antibody agarose beads, incubated with lysates of HEK-293T cells expressing DENND6A-GFP (or GFP) for 1 hour at 4 °C; 20 mM Hepes, 100 mM NaCl, 20 mM MgCl2, 1 mM dithiothreitol, 1% Triton X-100, pH 7.4; immunoblot with anti-GFP, anti-DIC, anti-Rab34; only the target …

binding, binds:
B1, B2

Target: T3, mito-mScarlet-DENND6A (human)
Assay: recruitment to mitochondria in cells (imaging); HeLa cells cotransfected with individual GFP-Rabs and mito-mScarlet-DENND6A or mito-mScarlet, fixed at 24 hours; localization of GFP-Rabs at the mitochondria judged by eye (Opera Phenix, hits confirmed on Leica SP8)

binding, binds:
GFP-Rab11A (from UniProt P62491 1-216), GFP-Rab8A (from UniProt P61006 1-207), GFP-Rab8B (from UniProt Q92930 1-207), B3, B4, B5, B6, B7, B8, B9, B10, B11, B12, B13, B14, B15
